This is an account of results in article PMC12777490.

Protein sequences, listed by entry. Tags and fused reporters are not part of them.
UniProt Q16637: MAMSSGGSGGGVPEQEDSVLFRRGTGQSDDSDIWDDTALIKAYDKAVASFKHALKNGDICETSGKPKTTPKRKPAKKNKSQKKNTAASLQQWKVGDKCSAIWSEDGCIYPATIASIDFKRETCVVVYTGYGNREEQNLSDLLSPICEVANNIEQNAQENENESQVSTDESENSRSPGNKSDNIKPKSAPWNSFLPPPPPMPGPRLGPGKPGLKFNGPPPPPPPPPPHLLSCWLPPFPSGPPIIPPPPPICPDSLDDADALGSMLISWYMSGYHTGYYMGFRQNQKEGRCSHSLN
UniProt O14893: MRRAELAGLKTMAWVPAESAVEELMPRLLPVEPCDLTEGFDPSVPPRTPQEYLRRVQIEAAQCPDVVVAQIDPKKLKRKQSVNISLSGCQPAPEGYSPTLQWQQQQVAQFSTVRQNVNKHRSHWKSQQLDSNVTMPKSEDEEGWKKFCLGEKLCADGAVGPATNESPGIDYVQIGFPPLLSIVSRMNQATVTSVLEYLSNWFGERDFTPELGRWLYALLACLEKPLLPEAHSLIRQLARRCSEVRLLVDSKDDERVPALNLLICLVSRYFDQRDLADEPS
UniProt Q9UHI6: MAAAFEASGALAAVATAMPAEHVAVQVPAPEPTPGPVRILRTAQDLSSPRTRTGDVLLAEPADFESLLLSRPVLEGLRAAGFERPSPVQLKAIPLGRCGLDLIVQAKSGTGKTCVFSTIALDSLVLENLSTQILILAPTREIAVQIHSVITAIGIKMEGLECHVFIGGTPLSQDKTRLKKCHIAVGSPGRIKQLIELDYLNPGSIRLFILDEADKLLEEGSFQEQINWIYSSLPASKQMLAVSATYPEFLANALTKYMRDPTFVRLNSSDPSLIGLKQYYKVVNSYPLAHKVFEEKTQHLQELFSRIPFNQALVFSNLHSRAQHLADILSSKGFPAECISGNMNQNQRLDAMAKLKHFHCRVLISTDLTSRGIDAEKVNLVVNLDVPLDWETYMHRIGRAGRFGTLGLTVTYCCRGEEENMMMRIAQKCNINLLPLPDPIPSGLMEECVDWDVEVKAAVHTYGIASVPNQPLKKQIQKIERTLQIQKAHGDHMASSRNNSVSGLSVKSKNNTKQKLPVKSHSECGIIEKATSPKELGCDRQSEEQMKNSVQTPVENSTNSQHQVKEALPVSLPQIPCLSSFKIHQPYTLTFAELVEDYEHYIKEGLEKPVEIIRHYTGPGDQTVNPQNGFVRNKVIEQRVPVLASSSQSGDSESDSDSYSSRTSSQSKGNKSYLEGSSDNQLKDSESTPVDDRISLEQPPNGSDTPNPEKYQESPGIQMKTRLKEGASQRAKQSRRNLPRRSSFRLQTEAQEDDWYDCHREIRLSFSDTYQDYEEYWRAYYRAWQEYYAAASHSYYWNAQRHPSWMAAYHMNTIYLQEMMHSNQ
UniProt Q8TEQ6: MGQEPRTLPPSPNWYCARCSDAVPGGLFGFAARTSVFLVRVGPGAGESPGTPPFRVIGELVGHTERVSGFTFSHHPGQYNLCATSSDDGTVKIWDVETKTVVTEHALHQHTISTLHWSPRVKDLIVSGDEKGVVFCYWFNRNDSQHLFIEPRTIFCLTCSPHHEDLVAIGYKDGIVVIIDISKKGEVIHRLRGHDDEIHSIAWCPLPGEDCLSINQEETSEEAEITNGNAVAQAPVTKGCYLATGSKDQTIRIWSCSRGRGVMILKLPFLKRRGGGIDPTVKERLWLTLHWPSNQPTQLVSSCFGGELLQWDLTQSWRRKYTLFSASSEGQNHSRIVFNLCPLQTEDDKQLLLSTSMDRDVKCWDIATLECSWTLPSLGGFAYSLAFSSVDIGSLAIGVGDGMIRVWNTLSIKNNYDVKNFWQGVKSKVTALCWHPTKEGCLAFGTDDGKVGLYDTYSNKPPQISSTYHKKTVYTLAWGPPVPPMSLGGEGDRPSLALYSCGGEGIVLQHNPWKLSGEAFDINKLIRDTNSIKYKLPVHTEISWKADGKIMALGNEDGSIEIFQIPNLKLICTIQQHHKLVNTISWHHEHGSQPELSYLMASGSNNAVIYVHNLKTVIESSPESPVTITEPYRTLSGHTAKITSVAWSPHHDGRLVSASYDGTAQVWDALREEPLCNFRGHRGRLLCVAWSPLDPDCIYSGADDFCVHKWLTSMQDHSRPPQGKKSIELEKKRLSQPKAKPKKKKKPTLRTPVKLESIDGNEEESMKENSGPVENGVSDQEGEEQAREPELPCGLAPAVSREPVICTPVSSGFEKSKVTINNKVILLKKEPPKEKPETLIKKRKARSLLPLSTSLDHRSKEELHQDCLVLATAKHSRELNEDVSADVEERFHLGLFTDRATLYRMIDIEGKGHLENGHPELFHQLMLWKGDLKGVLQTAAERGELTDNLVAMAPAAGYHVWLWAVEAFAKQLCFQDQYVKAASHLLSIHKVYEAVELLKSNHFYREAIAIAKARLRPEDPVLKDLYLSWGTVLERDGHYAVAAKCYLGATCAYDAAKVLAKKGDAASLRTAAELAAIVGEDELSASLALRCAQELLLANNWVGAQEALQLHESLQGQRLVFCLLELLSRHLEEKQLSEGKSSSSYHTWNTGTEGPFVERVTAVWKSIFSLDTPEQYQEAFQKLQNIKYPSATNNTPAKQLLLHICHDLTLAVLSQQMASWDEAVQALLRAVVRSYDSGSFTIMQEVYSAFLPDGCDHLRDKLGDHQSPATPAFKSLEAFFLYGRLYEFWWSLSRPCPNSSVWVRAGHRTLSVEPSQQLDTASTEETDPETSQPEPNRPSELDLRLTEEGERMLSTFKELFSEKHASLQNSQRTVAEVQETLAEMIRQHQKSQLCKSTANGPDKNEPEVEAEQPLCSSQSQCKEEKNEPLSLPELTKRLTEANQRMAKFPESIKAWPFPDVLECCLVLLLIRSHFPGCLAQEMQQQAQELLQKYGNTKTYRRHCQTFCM
UniProt Q8WXD5: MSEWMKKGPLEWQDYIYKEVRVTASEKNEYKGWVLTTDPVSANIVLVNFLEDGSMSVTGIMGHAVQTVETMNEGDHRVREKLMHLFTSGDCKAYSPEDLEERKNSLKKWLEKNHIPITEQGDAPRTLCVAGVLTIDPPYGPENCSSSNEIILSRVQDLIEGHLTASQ
UniProt Q9H840: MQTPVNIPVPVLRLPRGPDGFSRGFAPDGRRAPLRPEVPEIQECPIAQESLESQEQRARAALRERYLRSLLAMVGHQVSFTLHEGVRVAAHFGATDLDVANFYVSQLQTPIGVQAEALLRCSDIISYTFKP

Results are given in words; binding and its absence hold for the method and conditions named. In cells and extracts the contact can be indirect. Some binding calls cover weakened binding; strength is not graded here.

The assay has as its target SBP-tagged SMN1 protein (UniProt Q16637). Nature of the assay: pull-down; SBP-tagged SMN1 co-transfected with the other SMN constituent proteins without a tag in HEK293T; cleared lysate (TBS, 1% Triton X-100) incubated with Dynabeads M-280 Streptavidin for 30 min, washed, eluted by boiling in SDS sample buffer; SDS-PAGE, Strep-Tactin HRP blot and silver staining beside lysates expressing single proteins.
For the substance Gemin2 (from UniProt O14893 1-280), the binding entry is “binds”.
Regarding Gemin3 (from UniProt Q9UHI6 1-824), the binding entry was “binds”.
For Gemin5 (from UniProt Q8TEQ6 1-1508) the value was “binds”.
In the case of Gemin6 (from UniProt Q8WXD5 1-167) it was “binds”.
For Gemin7 (from UniProt Q9H840 1-131) the value was “binds”.
